Experimental data as given in US5112947A, “Peptides, and antidementia agents containing the same” (Nippon Chemiphar Co., Ltd., priority 1989, dated 1992).
At least one peptide structure holds a part that was inferred or is arguable (an end, a ring closure or a residue). Non-standard residues stand in square brackets, D forms with d. Residues, ends and D or L forms follow the SMILES beside them. *: point of attachment. Cys(free,S-linked) = N[C@@H](CS*)C(=O)O; Cyclopentanecarbonyl = O=C(C1CCCC1)*; pGlu = O=C1CC[C@@H](C(=O)O)N1; Pip = O=C(O)[C@@H]1CCCCN1

Tested on: male Wistar rats
Assay: one-trial passive avoidance test: improvement of experimental retrograde amnesia by cycloheximide
Assay type: in vivo, rat
Settings: dose 1 ng/kg, given 1 h before electro-shock (0.5 mA); cycloheximide 2.7 to 3.0 mg/kg s.c.; retention tested at 48 hours; control = cycloheximide alone
Protocol: 221, pp. […], 1983. […] At 48 hours after the administration was made, memory retention of the rats were tested.

Row | SMILES | Effect (%): ratio of response latent period of each group to that of the control groups
1 | N=C(N)NCCC[C@H](NC(=O)[C@@H]1CCCCN1C(=O)[C@H](CSSC[C@H](N)C(=O)O)NC(=O)[C@H](CC(N)=O)NC(=O)[C@@H]1CCC(=O)N1)C(=O)NCC(N)=O [Example 5] ([pGlu]NC(Cys(free,S-linked))[Pip]RG-NH2) | 298%
2 | N=C(N)NCCC[C@H](NC(=O)[C@@H]1CCCN1C(=O)[C@H](CSSC[C@H](N)C(=O)O)NC(=O)C1CCCC1)C(=O)NCC(N)=O [Example 16] (Cyclopentanecarbonyl-C(Cys(free,S-linked))PRG-NH2) | 251%
